# PubChem BioAssay AID1259254 – NCATS, 2017
# Purpose: 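Gene knock-downs that lead to re-replication, shown by excess G2 DNA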 (primary screen)
# Cell system: human HCT116 colorectal cancer cells
# Reagent: single siRNA against human genes
# Time to read-out: 3 days
# Measurement: 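Imaged Hoechst DNA stain sorts each cell into a cycle phase by DNA amount; per plate, G2 fraction set to 0% for non-targeting and 100% for GMNN siRNA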
# Direction: G2 robust z-score and G2 cells, % of GMNN control: higher = more G2 cells, more excess DNA replication; raw share of cells in G2: higher = larger share of cells with G2 DNA content
# Call rule: 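An siRNA counts as active if its G2 robust z-score lies at least 5 MADs above the screen median; here such calls match roughly 38% of GMNN control or more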
# In all, the deposit lists about 59,000 reagents; below is a part drawn at random. About 1,550 of them (2.6%) count as active. 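G2 share is only a proxy for re-replication; each gene was hit by three separate siRNAs, and active genes were retested.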 Raw values vary from plate to plate and are shown uncorrected. The numbers tell different reagents against one gene apart. Not given: the amount of reagent.
target gene,reagent,G2 robust z-score,"G2 cells, % of GMNN control",raw share of cells in G2 (%),Call
LTV1,1,3.75,29.3,16.5,inactive
LTV1,2,6.11,45.9,17.4,active
LTV1,3,0.9,9.3,5.87,inactive
CIBAR1,1,-0.628,-1.45,2.05,inactive
CIBAR1,2,-0.539,-0.822,3.86,inactive
CIBAR1,3,0.061,3.4,4.18,inactive
TSPAN8,1,0.225,4.55,7.15,inactive
TSPAN8,2,-0.1,2.26,4.79,inactive
TSPAN8,3,0.711,7.97,6.17,inactive
SCEL,1,3.39,26.8,17,inactive
SCEL,2,0.105,3.71,5.37,inactive
SCEL,3,0.254,4.76,5.03,inactive
CDK5RAP2,1,-0.145,1.95,5.27,inactive
CDK5RAP2,2,-0.782,-2.53,3.09,inactive
CDK5RAP2,3,-0.291,0.917,3.43,inactive
ALG3,1,0.514,6.58,8.56,inactive
ALG3,2,-0.101,2.26,4.57,inactive
ALG3,3,0.571,6.98,9.23,inactive
RPL15,1,0.153,4.04,6.69,inactive
RPL15,2,5.14,39.1,19.7,active
RPL15,3,0.223,4.54,4.99,inactive
SMAD4,1,-0.808,-2.72,4.31,inactive
SMAD4,2,-1.29,-6.11,1.18,inactive
SMAD4,3,4.13,32,18.2,inactive
CA10,1,1.35,12.4,8.89,inactive
CA10,2,-1.14,-5.03,2.24,inactive
CA10,3,-0.126,2.08,7.34,inactive
KIF2A,1,-0.345,0.543,5.24,inactive
KIF2A,2,3.96,30.8,17.4,inactive
KIF2A,3,-0.773,-2.47,3.29,inactive
ZSCAN32,1,7.15,53.3,21.6,active
ZSCAN32,2,0.178,4.22,7.81,inactive
ZSCAN32,3,-0.496,-0.524,3.47,inactive
IFI44L,1,-0.136,2.01,5.77,inactive
IFI44L,2,2.4,19.8,12.3,inactive
IFI44L,3,0.633,7.42,5.95,inactive

Records above marked active (3):
target gene,reagent,G2 robust z-score,"G2 cells, % of GMNN control",raw share of cells in G2 (%),Call
LTV1,2,6.11,45.9,17.4,active
RPL15,2,5.14,39.1,19.7,active
ZSCAN32,1,7.15,53.3,21.6,active

More results follow:
target gene,reagent,G2 robust z-score,"G2 cells, % of GMNN control",raw share of cells in G2 (%),Call
EML2,1,-0.371,0.356,4.55,inactive
EML2,2,-0.681,-1.83,3.15,inactive
EML2,3,1.68,14.8,8.47,inactive
FOXI2,1,-0.221,1.42,4.33,inactive
FOXI2,2,0.731,8.11,6.74,inactive
FOXI2,3,-0.685,-1.85,4.02,inactive
TANC1,1,0.0717,3.47,5.56,inactive
TANC1,2,-0.123,2.1,3.66,inactive
TANC1,3,5.42,41.1,16,active
DLX3,1,-0.101,2.26,5.82,inactive
DLX3,2,-0.357,0.454,4.25,inactive
DLX3,3,-0.758,-2.36,4.12,inactive
PCAT18,1,1.67,14.7,9.57,inactive
PCAT18,2,8.34,61.7,23.2,active
PCAT18,3,0.2,4.37,4.81,inactive
SMIM23,1,2.08,17.6,10.3,inactive
SMIM23,2,-0.199,1.56,3.84,inactive
SMIM23,3,-0.824,-2.83,2.32,inactive
SLC38A8,1,0.448,6.12,5.88,inactive
SLC38A8,2,-0.323,0.693,3.13,inactive
SLC38A8,3,-0.781,-2.53,2.19,inactive
OR56A4,1,1.64,14.5,8.31,inactive
OR56A4,2,-0.226,1.38,3.56,inactive
OR56A4,3,-0.0117,2.88,5.36,inactive
OR1L4,1,3.22,25.6,12.9,inactive
OR1L4,2,4.57,35.1,15.2,inactive
OR1L4,3,-0.491,-0.487,3.04,inactive
TAS2R1,1,1.04,10.3,6.49,inactive
TAS2R1,2,0.374,5.6,5.99,inactive
TAS2R1,3,0.171,4.17,6.13,inactive
TLR1,1,-0.384,0.269,4.48,inactive
TLR1,2,-0.182,1.69,5.9,inactive
TLR1,3,0.374,5.6,6.67,inactive
